Test results taken from patent US7115642B2, “Substituted diphenyl isoxazoles, pyrazoles and oxadiazoles useful for treating HCV infection” (priority 2003, dated 2006).
Some results were stated once for a whole list of compounds, not compound by compound.

Tested on: liver cells including an HCV replicon (5-2 Luc cells, 9–13 cells or Huh-7 cells)
Experiment: Cytotoxicity assay (Cell Titer Glo)
Type: cell-based
Conditions: 48 hr with compound, ATP-dependent Cell Titer Glo assay; read-out: IC50 in cytotoxicity assay (number of viable cells)
Protocol: Compounds 67, 167, 169, 13, 1, 145, 29, 119, 63, 31, 39, 103, 123, 121, 97, 129, 79, 111, 85, 89, 109, 127, 131, 95, 47, 57, 69, 165, 161, 163, 3, 137, 15, 141, 41, 53, 33, 113, 93, 105, 77, 91, 81, 83, 35, 27, 65, 7, 135, 51, 139, 51, 49, 143, 5, 149, 11, 37, 21, 45, 61, 75, 23, 125, 73, 43, 171 and 101 were tested in a cytotoxicity assay with liver cells including an HCV replicon (5-2 Luc cells, 9–13 cells or Huh-7 cells). In the assay, cells were seeded onto 96-well plates (approx. 7500 cells/well in a volume of 90 μl) and grown for 24 hr at 37° C. On day 2, various concentrations of test compound (in a volume of 10 μl) were added to the wells and the cells were grown for an additional 48 hr at 37° C. On day 4, an ATP-dependent R-Luciferase assay (Cell Titer Glo assay) was performed to determine the number of viable cells.

SMILES: O=C(Nc1cccc(-c2cc(-c3c(Cl)cccc3N3CCOCC3)no2)c1)C(Cl)Cl [Compound 7, 2,2-Dichloro-N-[3-[3-[2-chloro-6-(N-morpholino)phenyl]-5-isoxazolyl]phenyl]Acetamide]
- IC50: > 10 µM

SMILES: CSc1cccc(F)c1-c1cc(-c2cccc(NC(=O)C(Cl)Cl)c2)on1 [Compound 11, 2,2-Dichloro-N-[3-[3-(2-fluoro-6-thiomethylphenyl)-5-isoxazolyl]phenyl]Acetamide]
- IC50: > 10 µM

SMILES: O=C(Nc1cccc(-c2cc(-c3c(F)cccc3S(=O)(=O)N3CCOCC3)no2)c1)C(Cl)Cl [Compound 21, 2,2-Dichloro-N-[3-[3-[2-fluoro-(6-N-morpholinosulfamoyl)phenyl]-5-isoxazolyl]-phenyl]Acetamide]
- IC50: > 10 µM

SMILES: Cc1cc(OCCN2CCOCC2)cc(C)c1-c1cc(-c2cccc(NC(=O)C(Cl)Cl)c2)on1 [Compound 23, 2,2-Dichloro-N-[3-[3-[2,6-dimethyl-4-(N-morpholino-2-ethyleneoxy)phenyl]-5-isoxazolyl]phenyl]Acetamide]
- IC50: > 5 µM

SMILES: O=C(Nc1cccc(-c2cc(-c3c(N4CCOCC4)cccc3C(F)(F)F)no2)c1)C(Cl)Cl [Compound 37, 2,2-Dichloro-N-[3-[3-[2-(N-morpholino)-6-trifluoromethylphenyl)-5-isoxazolyl]phenyl]Acetamide]
- IC50: > 10 µM

SMILES: CN(C(=O)C(Cl)Cl)c1cccc(-c2cc(-c3c(Cl)cccc3Cl)no2)c1 [Compound 57, 2,2-Dichloro-N-[3-[3-(2,6-dichlorophenyl)-5-isoxazolyl]phenyl]-N-methyl Acetamide]
- IC50: > 10 µM

SMILES: O=C(Nc1cccc(-c2cc(-c3c(Cl)cc(OCCCN4CCOCC4)cc3Cl)no2)c1)C(Cl)Cl [Compound 73, 2,2-Dichloro-N-[3-[3-[2,6-dichloro-4-(N-morpholinopropyleneoxy)phenyl]-5-isoxazolyl]-phenyl]Acetamide]
- IC50: > 10 µM

SMILES: O=C(Nc1cccc(-c2cc(-c3c(Cl)cc(OCCN4CCOCC4)cc3Cl)no2)c1)C(Cl)Cl [Compound 75, 2,2-Dichloro-N-[3-[3-[2,6-dichloro 4-(N-morpholinoethyleneoxy)phenyl]-5-isoxazolyl]-phenyl]Acetamide]
- IC50: > 10 µM

SMILES: O=C(Nc1cccc(-c2cc(-c3c(Cl)cccc3OCCN3CCOCC3)no2)c1)C(Cl)Cl [Compound 95, 2,2-Dichloro-N-[3-[3-[2-chloro-6-(N-morpholino-2-ethyleneoxy)phenyl]-5isoxazolyl]-phenyl]Acetamide]
- IC50: > 10 µM

SMILES: O=C(Nc1cccc(-c2cc(-c3ccccc3-c3ccccc3)no2)c1)C(Cl)Cl [Compound 123, 2,2-Dichloro-N-[3-[3-(2-phenyl)phenyl-5-isoxazolyl]phenyl]Acetamide]
- IC50: > 10 µM

SMILES: O=C(Nc1cccc(-c2cc(-c3c(Cl)cc(OCCN4CCCCC4)cc3Cl)no2)c1)C(Cl)Cl [Compound 125, 2,2-Dichloro-N-[3-[3-[2,6-dichloro-4-(N-piperidinylethylenoxy)phenyl]-5-isoxazolyl]-phenyl]Acetamide]
- IC50: > 10 µM

SMILES: CN(C)CCN(C)c1cccc(Cl)c1-c1cc(-c2cccc(NC(=O)C(Cl)Cl)c2)on1 [Compound 131, 2-Dichloro-N-[3-[3-[2-chloro-6-(N,N-dimethylethylene-N′-methylamino)phenyl]-5-isoxazolyl]-phenyl]Acetamide]
- IC50: > 10 µM

SMILES: O=C(Nc1cccc(-c2cc(-c3c(Cl)cc(Cl)cc3OCCN3CCOCC3)no2)c1)C(Cl)Cl [Compound 143, 2,2-Dichloro-N-[3-[3-[2,4-dichloro-6-(N-morpholino-2-ethyleneoxy)phenyl]-5-isoxazolyl]-phenyl]Acetamide]
- IC50: > 10 µM

SMILES: O=C(Nc1cc(-c2cc(-c3c(Cl)cccc3Cl)no2)ccc1N1CCOCC1)C(Cl)Cl [Compound 169]
- IC50: > 10 µM

SMILES: O=C(Nc1cc(-c2cc(-c3c(Cl)cccc3Cl)no2)ccc1OCCN1CCOCC1)C(Cl)Cl [Compound 171, 2,2-Dichloro-N-[3-[3-(2,6-dichlorophenyl)-5-isoxazolyl]-6-(N-morpholino-2-ethyleneoxy)phenyl]Acetamide]
- IC50: > 10 µM
